PubChem BioAssay AID504791 | Drosophila RNAi Screening Center | 2011

Test: 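Factors in Argonaute-based small RNA production and activity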 (primary screen)
Cells: Drosophila S2-derived reporter cells
Knock-down reagent: long dsRNA against Drosophila genes, about 150-250 ng dsRNA per well (siRNA assay); about 80-120 ng (miRNA assay)
Time to read-out: about 5 days (siRNA assay); about 4 days (miRNA assay)
Challenge: copper sulfate induction of reporters: 25 µM (siRNA assay); 200 mM stated (miRNA assay), 1-2 days before reading
Detection: 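Per-well ratio of Renilla over firefly light, expressed relative to that plate's average ratio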
Direction: siRNA reporter hit score: higher = 3 marks a strong hit with raised ratio; -3 a strong hit with lowered ratio
Units: stable assay Renilla, run 1 in luminescence; stable assay firefly, run 1 in luminescence
Call rule: 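a well was a first-pass pick when its plate-scaled ratio rose above 1.5 (siRNA assay) or 1.6 (miRNA assay), or dropped below 0.6; a gene counted only if two separate dsRNAs agreed on retest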
In all, the deposit lists about 23,000 reagents; shown is an unselected part of those that have a named target and a result. In the full data, 199 (0.86%) are marked active. 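Plate-scaled ratios behind the calls are not deposited; printed light signals are raw; many rows marked increased or decreased are still called inactive.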 Entries without a mark were called inactive.

With knock-down of CG15499 (retired record) [DRSC15041], the screen gave stable assay Renilla, run 1 = 8236; stable assay firefly, run 1 = 4.66e5.
With knock-down of Not11 (CCR4-NOT transcription complex subunit 11) [DRSC04204], the record shows stable assay Renilla, run 1 = 5820; stable assay firefly, run 1 = 4.79e5.
With knock-down of CG32576 [DRSC19136] the results were stable assay Renilla, run 1 = 4407; stable assay firefly, run 1 = 3.94e5.
With knock-down of AgmNAT (Agmatine N-acetyltransferase) [DRSC18072], the screen gave stable assay Renilla, run 1 = 5990; stable assay firefly, run 1 = 2.77e5.
Depletion of dpr3 (defective proboscis extension response 3) [DRSC00395] came out at: stable assay Renilla, run 1 = 7939; stable assay firefly, run 1 = 5.06e5.
With knock-down of dpr3 (defective proboscis extension response 3) [DRSC00396] the results were siRNA reporter hit score -3; stable siRNA reporter change reporter ratio raised past the hit cutoff; miRNA reporter change reporter ratio raised past the hit cutoff; stable assay Renilla, run 1 = 12840; stable assay firefly, run 1 = 3.92e5.
Against dpr3 (defective proboscis extension response 3) [DRSC21369], the entry reads stable assay Renilla, run 1 = 7179; stable assay firefly, run 1 = 2.86e5.
Depletion of Mtr3 [DRSC10953] gave: stable assay Renilla, run 1 = 8039; stable assay firefly, run 1 = 3.27e5.
Coop (Corepressor of Pangolin) [DRSC06604] scored stable assay Renilla, run 1 = 11319; stable assay firefly, run 1 = 2.14e6.
Silencing of Fitm (Fat storage inducing transmembrane protein) [DRSC09772] came out at: stable assay Renilla, run 1 = 7115; stable assay firefly, run 1 = 3.84e5.
CG10953 [DRSC06021] gave stable assay Renilla, run 1 = 6692; stable assay firefly, run 1 = 3.86e5.
With knock-down of CG8079 [DRSC07070], the screen gave stable assay Renilla, run 1 = 10097; stable assay firefly, run 1 = 5.28e5.
After knock-down of CG8079 [DRSC07071] the results were stable assay Renilla, run 1 = 5024; stable assay firefly, run 1 = 2.57e5.
After knock-down of kl-5 (retired record) [DRSC20707] the results were stable assay Renilla, run 1 = 6564; stable assay firefly, run 1 = 5.48e5.
For kl-5 (retired record) [DRSC20736] the deposit lists stable assay Renilla, run 1 = 3851; stable assay firefly, run 1 = 2.92e5.
After knock-down of kl-5 (retired record) [DRSC20773], the screen gave stable assay Renilla, run 1 = 4587; stable assay firefly, run 1 = 3.29e5.
kl-5 (retired record) [DRSC21161] scored stable assay Renilla, run 1 = 5563; stable assay firefly, run 1 = 4.66e5.
For CG13690 [DRSC00359] the deposit lists stable assay Renilla, run 1 = 8059; stable assay firefly, run 1 = 4.43e5.
Silencing of CG10801 [DRSC17761] resulted in: stable assay Renilla, run 1 = 6227; stable assay firefly, run 1 = 3.48e5.
Rad51D (Rad51 recombinase D) [DRSC06840] showed stable assay Renilla, run 1 = 6786; stable assay firefly, run 1 = 3.69e5.
CG5447 [DRSC15801] scored stable assay Renilla, run 1 = 6791; stable assay firefly, run 1 = 4.20e5.
Sec20 (Secretory 20) [DRSC12295] showed stable assay Renilla, run 1 = 6499; stable assay firefly, run 1 = 3.91e5.
Depletion of CG2812 [DRSC04319] came out at: stable siRNA reporter change reporter ratio raised past the hit cutoff; stable assay Renilla, run 1 = 8078; stable assay firefly, run 1 = 3.11e5.
Against Gr85a (Gustatory receptor 85a) [DRSC12760], the entry reads stable assay Renilla, run 1 = 7254; stable assay firefly, run 1 = 5.29e5.
Depletion of CG14384 [DRSC14842] gave: stable assay Renilla, run 1 = 6614; stable assay firefly, run 1 = 4.39e5.
With knock-down of l(1)G0020 (lethal (1) G0020) [DRSC18198], the record shows stable assay Renilla, run 1 = 5375; stable assay firefly, run 1 = 3.76e5.
After knock-down of jet (jetlag) [DRSC03116] the results were stable assay Renilla, run 1 = 13621; stable assay firefly, run 1 = 7.43e5.
CG15170 [DRSC02471] scored stable assay Renilla, run 1 = 6822; stable assay firefly, run 1 = 3.71e5.

Part of the list above, limited to “stable assay Renilla, run 1”:
Sec20 (Secretory 20) [DRSC12295]	6499
CG2812 [DRSC04319]	8078
Gr85a (Gustatory receptor 85a) [DRSC12760]	7254
